According to the supplement of paper PMC8047044:
“And” between values parts separate entries of the source, which are not always exact repeats. Equal entries are not always repeated. The list shows a part of the results. Single values are uncertain, as repeats are few or missing.

Each compound was assayed on Neuro-2a (assay: neurite formation score, plate-normalized to DMSO control mean 5.04 (score (0-8 scale)); higher = more or longer neurites). Details: 10 µM.

SMILES | neurite formation score
N#Cc1c(NC(=O)c2cccc3ccccc23)sc2c1CCCC2 | 1.19
Clc1ccc(Nc2nnc(Cc3ccncc3)c3ccccc23)cc1 [Vatalanib (PTK787) 2HCl] | 4.54
Nc1nc(N)c(N=O)c(OCC2CCCCC2)n1 | 5.54
O=C(NCc1cccc(O)c1)Nc1nc(-c2ccncc2)cs1 | 4.41
CCN1CCN(Cc2ccc(NC(=O)Nc3ccc(Oc4cc(NC)ncn4)cc3)cc2C(F)(F)F)CC1 | 3.21
Nc1nccc(Oc2ccc(NC(=O)c3c[nH]cc(-c4ccc(F)cc4)c3=O)cc2F)c1Cl | 1.09
CC(=O)c1c(C)c2cnc(Nc3ccc(N4CCNCC4)cn3)nc2n(C2CCCC2)c1=O | 3.52 and 4.19
CNc1nc(Nc2cnn(C3CCN(C4COC4)CC3F)c2Cl)ncc1C(F)(F)F (stereo not given) | 5.19
N#CC[C@H](C1CCCC1)n1cc(-c2ncnc3[nH]ccc23)cn1 [Ruxolitinib phosphate] | 5.41
Nc1nc(NCCNc2ncc(-n3ccnc3)c(-c3ccc(Cl)cc3Cl)n2)ccc1[N+](=O)[O-] | 4.76
N#CC[C@H](C1CCCC1)n1cc(-c2ncnc3[nH]ccc23)cn1 | 5.54
COc1cc2ncnc(Nc3ccc(O)cc3)c2cc1OC | 5.41
COc1cc(N2CCC(N3CCN(C)CC3)CC2)ccc1Nc1ncnc(Nc2ccccc2S(=O)(=O)C(C)C)n1 | 4.88
CCS(=O)(=O)N1CCN(c2ccc(Nc3ncc(C(N)=O)c(NC4CC4)n3)cc2)CC1 | 5.19
CN1CCN(c2ccc3nc(-c4c(N)c5c(F)cccc5[nH]c4=O)[nH]c3c2)CC1 [Dovitinib (TKI-258, CHIR-258)] | 1.19
CCc1cnn2c(NCc3ccc[n+]([O-])c3)cc(N3CCCC[C@H]3CCO)nc12 | 2.09
C[C@@H]1COCCN1c1cc(C2(S(C)(=O)=O)CC2)nc(-c2cccc3[nH]ccc23)n1 | 4.21
CS(=O)(=O)c1cccc(CNc2nc(Nc3ccc4c(c3)CCC(=O)N4)ncc2C(F)(F)F)c1 | 2.76
Cc1ccc([N+](=O)[O-])cc1S(=O)(=O)N(C)/N=C/c1cnc2ccc(Br)cn12 | 4.19
CC(C)CCN1c2nc(Nc3cc(F)c(O)c(F)c3)ncc2N(C)C(=O)C1C (stereo not given) | 1.86
NC(=O)c1ccc(N(C(N)=O)c2c(F)cccc2F)nc1-c1ccc(F)cc1F | 4.43
c1cncc(CN2CCC(n3ncc4c(N5CCOCC5)nc(-c5ccc6[nH]ccc6c5)nc43)CC2)c1 | 0.189
O=C(NCCCNc1nc(Nc2cccc(CN3CCOCC3)c2)ncc1C1CC1)C1CCC1 | 5.08
Cc1[nH]c(/C=C2\C(=O)Nc3ccc(S(=O)(=O)N(C)c4cccc(Cl)c4)cc32)c(C)c1C(=O)N1CCN(C)CC1 | 1.54
COc1cc(-c2cc(-c3cccc(O)c3)cnc2N)cc(OC)c1OC | 0.855

Single values from the entries so far.
Nc1nc(N)c(N=O)c(OCC2CCCCC2)n1 – neurite formation score: 5.54
Clc1ccc(Nc2nnc(Cc3ccncc3)c3ccccc23)cc1 [Vatalanib (PTK787) 2HCl] – neurite formation score: 4.54
